PubChem BioAssay AID1053208 | Peter MacCallum Cancer Centre | 2014

Aim: 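Find knock-downs that sensitise mouse osteosarcoma cells to doxorubicin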 (primary screen)
System: mouse osteosarcoma cells, early-passage culture from an engineered mouse model of fibroblastic bone tumour
Reagents: siRNA pool against mouse genes, 40 nM
Timing: about 120 h (48 h before drug, then 72 h with drug)
Treatment: doxorubicin 100 nM for 72 h, roughly 30-40% inhibitory dose
Measurement: 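Viability read as ATP luminescence after 72 h of 100 nM doxorubicin or none, duplicate wells averaged, scaled to non-targeting siRNA, then expressed as robust z-scores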
Direction: viability z-score with doxorubicin: higher = more viable cells under doxorubicin; viability z-score without drug: higher = more viable cells with knock-down alone
Rule for the call: 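a pool counts as active when its viability z-score with doxorubicin is -2 or below and its z-score without drug lies between -2 and 2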
Shown is one part, drawn at random, of about 17,000 deposited reagents. In the full data, 788 (4.7%) were called active. 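Calls rest on z-score classes alone; an extra cut-off of viability at most 70% of control was not applied to them.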 Not all columns of the deposit are shown.

Fgfbp3 (GeneID 72514) | combined z-score class: no change with or without drug; viability z-score with doxorubicin: 0.67; viability z-score without drug: 0.67; Outcome: inactive
Tjp1 (GeneID 21872) | combined z-score class: no change with or without drug; viability z-score with doxorubicin: -0.22; viability z-score without drug: -0.17; Outcome: inactive
Pgr (GeneID 18667) | combined z-score class: no change with or without drug; viability z-score with doxorubicin: -0.45; viability z-score without drug: 1.52; Outcome: inactive
Glmn (GeneID 170823) | combined z-score class: no change with or without drug; viability z-score with doxorubicin: 0.56; viability z-score without drug: 1.69; Outcome: inactive
Polr1b (GeneID 20017) | combined z-score class: low cell count without drug only; viability z-score with doxorubicin: -1.8; viability z-score without drug: -3.2; Outcome: inactive
Iars2 (GeneID 381314) | combined z-score class: low cell count with doxorubicin only; viability z-score with doxorubicin: -2.36; viability z-score without drug: -0.84; Outcome: active
Dkk1 (GeneID 13380) | combined z-score class: no change with or without drug; viability z-score with doxorubicin: 0.9; viability z-score without drug: 0.84; Outcome: inactive
Fez2 (GeneID 225020) | combined z-score class: no change with or without drug; viability z-score with doxorubicin: -0.67; viability z-score without drug: -0.17; Outcome: inactive
Fem1b (GeneID 14155) | combined z-score class: no change with or without drug; viability z-score with doxorubicin: -0.67; viability z-score without drug: -0.51; Outcome: inactive
Macroh2a1 (GeneID 26914) | combined z-score class: no change with or without drug; viability z-score with doxorubicin: 0.9; viability z-score without drug: 1.35; Outcome: inactive
Pdpn (GeneID 14726) | combined z-score class: no change with or without drug; viability z-score with doxorubicin: 0.67; viability z-score without drug: -0.17; Outcome: inactive
Gmds (GeneID 218138) | combined z-score class: no change with or without drug; viability z-score with doxorubicin: -1.12; viability z-score without drug: -1.18; Outcome: inactive

2 entries already listed, arranged by “viability z-score with doxorubicin”, highest first.
Fez2 (GeneID 225020) | combined z-score class: no change with or without drug; viability z-score with doxorubicin: -0.67; viability z-score without drug: -0.17; Outcome: inactive
Fem1b (GeneID 14155) | combined z-score class: no change with or without drug; viability z-score with doxorubicin: -0.67; viability z-score without drug: -0.51; Outcome: inactive
